The source of these data is patent publication US5486515A, “2-fluoroalkyl-1,4-benzoxaxines as potassium channel mediators” (Zeneca Limited, priority 1993, dated 1996).

SMILES strings stand for the structures.

The test system of test [1] is bladder detrusor smooth muscle. The test can be described thus: first in vitro test: relaxation of guinea pig bladder detrusor strips contracted with 15 mM KCl. The class given is cell-based, Male albino Hartley guinea pigs. The note with it: calcium channel blockers. How it is done:
Male albino Hartley guinea pigs (450-500 g) are sacrificed by carbon dioxide induced asphyxiation and quickly exsanguinated. The lower abdominal cavity is opened and the urinary bladder isolated. […] The solution is warmed to 37° C. and gassed with 95% O2 and 5% CO2. With vigorous bubbling, the solution should have a pH value close to 7.4.
The dome of the washed bladder is cut off and discarded; the remaining bladder is placed on a gauze in a Petri dish containing the buffer solution. A mid-ventral longitudinal cut is made with scissors to open the bladder. The strips cut from the dome and the base edge are discarded. The remaining detrusor mid-section is cut into two horizontal strips with an approximate width of 2.0 mm. These two strips are further bisected at the mid-dorsal section, creating four strip of similar dimensions. Each strip thus contains both dorsal and ventral portions of the bladder.
The two ends of each individual strip are tied to a glass support rod and a force-displacement transducer (Grass model FR03), respectively, with 4-0 black braided silk suture. […]
When the tissue relaxes to a steady state after the final washing, 15 mM KCl is again applied. […] The effect of the compound at each dose is expressed as % of the maximum inhibitory response, which is further normalized with respect to the corresponding effect of the compound vehicle control. […]

For test [2], the system named is detrusor smooth muscle. The test can be described thus: second in vitro test: relaxation of guinea pig detrusor strips contracted with 80 mM KCl. It is filed as cell-based. The note with it: 80 mM KCl vs 15 mM KCl. Here is the method:
This second in vitro test is similar to the one described above with regard to tissue preparation and data acquisition. However, the following exceptions are noted. In this second test, the contraction of the detrusor strips during priming and after the equilibration period is achieved with 80 mM instead of 15 mM KCl (total concentration in the bath).

Turning to `COC(=O)C1=C(C)NC(C)=C(C(=O)OC)C1c1ccccc1[N+](=O)[O-]` [nifedipine], in test [1], the “relaxation and reduction of the myogenic activity of guinea pig detrusor strips” value was “able to relax and reduce the myogenic activity”. Further, the “potency in the second test relative to the first test” value in test [2] is “more potent in the second test”.
